According to US20230324419A1, “METHOD FOR DIAGNOSING ACTING OF NERVONIC ACID AND USE THEREOF” (BAO FENG BIOTECH (BEIJING) CO., LTD, priority 2020, published 2023):

Test: Youden index / ROC analysis of differential serum lipids after acer truncatum bunge seed oil supplementation (UPLC-QTOF lipidomics)
Type: in vivo, SD rats
[1] = 1 day of acer truncatum bunge seed oil supplementation
[2] = single serum lipid predicting supplementation, 1 day of acer truncatum bunge seed oil (nervonic acid 0.03 g/kg/d, gavage), NA vs CK group
[3] = 3 days of acer truncatum bunge seed oil supplementation
[4] = 7 days of acer truncatum bunge seed oil supplementation

Molecule	sensitivity [1]	specificity [1]	AUC [2]	AUC [3]	sensitivity [3]	specificity [3]	AUC [4]	sensitivity [4]	specificity [4]
CC/C=C\C/C=C\C/C=C\C/C=C\C/C=C\C/C=C\CCC(=O)OC[C@@H](COC(=O)CCCCCCCCCCCCCCC)OC(=O)CCCCCC/C=C\C/C=C\C/C=C\CCCCC [TG(16:0/20:3(8Z,11Z,14Z)/22:6(4Z,7Z,10Z,13Z,16Z,19Z))]	1	0.8	0.92						
CC/C=C\C/C=C\C/C=C\C/C=C\C/C=C\CCCC(=O)OC[C@H](COP(=O)([O-])OCC[N+](C)(C)C)OC(=O)CCCCCC/C=C\C/C=C\C/C=C\CCCCC [PC(20:5(5Z,8Z,11Z,14Z,17Z)/20:3(8Z,11Z,14Z))]				0.96	1	0.8			
18:1-Glc-Campesterol				1	1	1			
SM(d18:2/24:0)				1	1	1	1	1	1
SM(d17:1/24:1)				1	1	1	1	1	1
TG(17:2(9Z,12Z)/18:1(9Z)/22:1(11Z))				1	1	1			
CCCCC/C=C\C/C=C\C/C=C\CCCCCCC(=O)O[C@H](COC(=O)CCCCCCCCCCCCCCCCC)COP(=O)(O)OC1C(O)C(O)C(O)[C@@H](O)C1O (stereo partly drawn) [PI(18:0/20:3(8Z,11Z,14Z))]				0.92	0.8	1			
CC/C=C\C/C=C\C/C=C\C/C=C\C/C=C\CCCCCC(=O)OC[C@@H](COC(=O)CCCCCCC/C=C\CCCC)OC(=O)CCCCCCCCC/C=C\C/C=C\CCCCC [TG(14:1(9Z)/20:2(11Z,14Z)/22:5(7Z,10Z,13Z,16Z,19Z))]	1	1	1						
CCCCC/C=C\C/C=C\CCCCCCCCCC(=O)O[C@H](COC(=O)CCCCCCCCCCCCCCCCCCCC)COP(=O)(O)OC[C@H](N)C(=O)O [PS(21:0/20:2(11Z,14Z))]				0.88	0.8	1			
CCCCC/C=C\C/C=C\C/C=C\C/C=C\CCCC(=O)OC[C@@H](COC(=O)CCCC/C=C\C/C=C\C/C=C\CCCCC)OC(=O)CCCCCC/C=C\C/C=C\C/C=C\CCCCC [TG(18:3(6Z,9Z,12Z)/20:3(8Z,11Z,14Z)/20:4(5Z,8Z,11Z,14Z))]	1	0.8	0.96						
CCCCCCCC/C=C\C/C=C\C/C=C\CCCC(=O)OC[C@H](COP(=O)([O-])OCC[N+](C)(C)C)OC(=O)CCCCCCCCCCCCCCCCC [PC(20:3(5Z,8Z,11Z)/18:0)]				0.88	0.8	1			
CCCCCCCC/C=C\CCCCCCCCCCCCCC(=O)N[C@@H](CO)[C@H](O)/C=C/CCCCCCCCCCCCC [Cer(d18:1/24:1(15Z))]				1	1	1	1	1	1
CC/C=C\C/C=C\C/C=C\C/C=C\C/C=C\C/C=C\CCC(=O)OC[C@@H](COC(=O)CCCCCCC/C=C\CCCCCC)OC(=O)CCCCC/C=C\C/C=C\C/C=C\C/C=C\C/C=C\CC [TG(16:1(9Z)/22:5(7Z,10Z,13Z,16Z,19Z)/22:6(4Z,7Z,10Z,13Z,16 Z,19Z))]	1	0.8	0.96						
CC/C=C\C/C=C\C/C=C\C/C=C\CCCCC(=O)O[C@H](COC(=O)CCCCCCC/C=C\CCCCCC)COC(=O)CCCCCCCCC/C=C\CCCCCCCCCC [TG(16:1(9Z)/18:4(6Z,9Z,12Z,15Z)/22:1(11Z))]	1	0.8	0.88						
1,2-didocosanoyl-sn-glycero-3-phosphosulfocholine							1	1	1
